The values that follow come from publication doi:10.1101/768267.

For assay [1], the target named is TRQ-Cldn12 (claudin-12 N-terminally fused with pmTurquoise2) (UniProt Q9ET43). Kind of assay: enrichment at cell-cell contacts.
The target in assay [2] is T1, YFP-Ocln (occludin N-terminally fused with yellow fluorescent protein) (UniProt Q61146).
T1 sequence: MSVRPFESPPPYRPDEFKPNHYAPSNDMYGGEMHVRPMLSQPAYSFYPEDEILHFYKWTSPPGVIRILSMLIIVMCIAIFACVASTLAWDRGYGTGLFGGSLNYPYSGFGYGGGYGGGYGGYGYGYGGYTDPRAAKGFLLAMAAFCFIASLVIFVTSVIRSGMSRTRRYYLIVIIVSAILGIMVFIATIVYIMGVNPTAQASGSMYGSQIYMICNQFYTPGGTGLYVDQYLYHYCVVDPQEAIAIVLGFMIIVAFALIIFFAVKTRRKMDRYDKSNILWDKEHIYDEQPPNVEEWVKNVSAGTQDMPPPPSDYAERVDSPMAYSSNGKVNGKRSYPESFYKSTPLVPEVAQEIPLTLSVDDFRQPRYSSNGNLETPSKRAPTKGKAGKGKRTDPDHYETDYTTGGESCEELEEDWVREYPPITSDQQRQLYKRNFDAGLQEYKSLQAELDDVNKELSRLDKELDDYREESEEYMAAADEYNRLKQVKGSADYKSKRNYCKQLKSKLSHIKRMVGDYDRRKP
Kind of assay: enrichment at cell-cell contacts.

Assay [3] has as its target T2, EYFP- or ECFP-tagged human PMP22 (human) (UniProt Q01453).
T2 sequence: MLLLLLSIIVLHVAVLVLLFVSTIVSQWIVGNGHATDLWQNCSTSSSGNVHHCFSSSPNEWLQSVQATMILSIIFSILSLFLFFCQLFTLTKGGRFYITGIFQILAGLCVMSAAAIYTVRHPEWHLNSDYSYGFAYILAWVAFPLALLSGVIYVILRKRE
The experiment in a line: FRET or BRET. For orientation: Bioluminescence resonance energy transfer reports proximity on the nanometre scale.

The target in assay [4] is T3, EYFP- or ECFP-tagged human CLDN19b (human) (UniProt Q8N6F1).
T3 sequence: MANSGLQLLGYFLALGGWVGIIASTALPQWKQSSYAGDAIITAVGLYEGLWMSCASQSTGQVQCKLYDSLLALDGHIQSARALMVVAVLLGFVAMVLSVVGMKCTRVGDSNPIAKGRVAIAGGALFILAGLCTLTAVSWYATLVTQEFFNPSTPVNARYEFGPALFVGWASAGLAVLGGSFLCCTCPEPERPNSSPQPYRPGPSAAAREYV
The experiment in a line: FRET or BRET.

The target in assay [5] is T4, EYFP- or ECFP-tagged human CLDN19a (human) (UniProt Q8N6F1).
T4 sequence: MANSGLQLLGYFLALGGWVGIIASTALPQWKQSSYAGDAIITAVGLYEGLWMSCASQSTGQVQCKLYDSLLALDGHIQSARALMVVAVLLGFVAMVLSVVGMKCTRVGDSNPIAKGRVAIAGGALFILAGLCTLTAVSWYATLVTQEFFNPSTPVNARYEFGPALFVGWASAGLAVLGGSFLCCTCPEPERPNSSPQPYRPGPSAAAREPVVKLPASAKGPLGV
The experiment in a line: FRET or BRET.

These are yes or no findings as the source states them, for the method shown. For some assays here: Binding seen in cells or lysates may run through a third protein. Sequences can lack the tags named with a protein. Some results given as binding are weak or reduced against the parent protein; the word gives no strength.

B1: TRQ-Cldn12 (claudin-12 N-terminally fused with pmTurquoise2) (protein, UniProt Q9ET43 1-244)
chain: MGCRDVHAATVLSFLCGIASVAGLFAGTLLPNWRKLRLITFNRNEKNLTIYTGLWVKCARYDGSSDCLMYDRTWYLSVDQLDLRVLQFALPLSIVIAMGALLLCLIGMCNTAFNSSVPNIKLAKCLVNSAGCHLVAGLLFFLAGTVSLSPSIWAIFYNSHLNRKFEPVFTFDYAVFVTIASSGGLFMTALLLFVWYCACKSLSSPFWQPLYSHAPGMHTYSQPYSSRSRLSAIEIDIPVVSHST
Turning to B1, the binding entry in assay [1] is “no binding”; in assay [2], “binds weakly”.

B2: EYFP- or ECFP-tagged murine Cldn12 (protein, UniProt Q9ET43 1-244)
chain: MGCRDVHAATVLSFLCGIASVAGLFAGTLLPNWRKLRLITFNRNEKNLTIYTGLWVKCARYDGSSDCLMYDRTWYLSVDQLDLRVLQFALPLSIVIAMGALLLCLIGMCNTAFNSSVPNIKLAKCLVNSAGCHLVAGLLFFLAGTVSLSPSIWAIFYNSHLNRKFEPVFTFDYAVFVTIASSGGLFMTALLLFVWYCACKSLSSPFWQPLYSHAPGMHTYSQPYSSRSRLSAIEIDIPVVSHST
Regarding B2, the binding result in assay [3], in assay [4] and in assay [5] was “no binding” each time.
